According to article PMC4225516:
No constants are given. Whether binding was seen depends on the method and setting. In cells and extracts the contact can be indirect. A result given as binding can be weak or reduced; the word gives no strength. Values belong to the molecule of their own block, whether it stands above or below them.

Columns and labels:
[1] = molecular target: T1, mouse acrosome and sperm tail protein (MAST) (mouse (endogenous in testis)) (UniProt Q7TPM5); experiment: co-IP; antibody cross-linked (DSS) to protein A/G plus agarose (Pierce cross link IP kit); pre-cleared mouse testis lysate, 1-2 h or overnight at 4°C; eluate probed by western blot
T1 sequence: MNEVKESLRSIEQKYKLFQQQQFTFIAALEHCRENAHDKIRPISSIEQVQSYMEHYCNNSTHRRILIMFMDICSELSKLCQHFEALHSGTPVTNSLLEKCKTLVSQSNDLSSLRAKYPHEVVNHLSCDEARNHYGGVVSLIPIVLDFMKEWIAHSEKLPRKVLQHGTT

[2] = molecular target: caldendrin (mouse (endogenous in testis)); experiment: as above

binding [1]: binds
Molecule: caldendrin (mouse (endogenous in testis))

binding [2]: binds
B1: mouse acrosome and sperm tail protein (MAST) (protein, UniProt Q7TPM5 1-168)
chain: T1 sequence
